Patent US11795204B2 (Zealand Pharma A/S, priority 2012, dated 2023)

Experiment: general procedure: Fmoc solid-phase peptide synthesis; Tentagel S PHB-Thr(tBu); HATU or COMU with DIPEA
Settings: whole synthesis, analytical HPLC

H-HSQGTFTSDYSRYLESARAEDFVKWLEST-OH
final HPLC purity: 99%
